Source: US9863962, “Aptamers and sensing technology used for detection of glycated hemoglobin in whole blood” (Alfaisal University)
For some assays here: No signal at the amounts used counts as a negative. For some assays here: Weaker means in comparison with the reference protein, sequence or condition of that experiment.

Columns and labels:
[1] = test system: glycated hemoglobin HbA1c; test: binding assay; details: impedance screen at 25 nM; did not show good binding; purified native protein; single-stranded DNA
[2] = test system: hemoglobin (Hb, non-glycated / total Hb); test: binding assay; details: impedance; no significant response with non-glycated Hb; purified native protein; single-stranded DNA

Sequence	binding result [1]	binding result [2]
CGCACACCAGCACACTCAAAAGAACATACAAAGAACGTCGATCCACATACCACGGCTGCC [G22]	binds more weakly	–
GGGGACACAGCAACACACCCACCCACCAGCCCCAGCATCATGCCCATCCGTCGTGTGTG [G20]	–	no binding
